Hit rate of the full screen: of about 1,300 compounds, fewer than 10 were called active. Not shown: some 9% with an inconclusive outcome. The call rests on the fitted dose curve; in most records, active means well fitted curve in the direction sought with a large enough effect; inconclusive means small, poorly fitted or top-dose-only effect, or another doubt; inactive means no such curve, though single readings can be large or run the other way. The list shows a part of the results.
Assay: qHTS for antagonists of the Thyroid Stimulation Hormone Receptor: Hit Validation in Parental Cell Line; further: 0% is about no effect
Conditions: parental HEK293 cells lacking TSHR, counter-screen; series mostly up to 56.9 µM; activity change, negative = inhibition: at the top concentration
Summary of the method: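 Counterscreen in untransfected parental HEK-EM 293 cells. Lysate cAMP displaces cAMP-d2 from cryptate-tagged anti-cAMP antibody, and homogeneous TR-FRET is read at 665 nm with 337 nm excitation after stimulation.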

Row | Structure (SMILES) | activity change, negative = inhibition
1 | O=C(c1ccc2c(c1)N(Cc1ccccc1)C(=O)c1ccccc1S2)N1CCCC1 | inactive: 2.87%
2 | Cc1nc2ccc(C(=O)Nc3ccc4nc[nH]c4c3)cc2[nH]1 | inactive: 3.85%
3 | COc1ccc(C(=O)c2ccccc2)c2c(O)ccc(C(=O)c3ccccc3)c12 | inactive: -1.57%
4 | COc1cccc(C(=O)Nc2ccc(-c3nc4ccccc4o3)c(O)c2)c1 | inactive: -8.13%
5 | CCN(Cc1ccccc1)c1ccc(/C=N/NC(=O)c2cccc(S(=O)(=O)N3CCOCC3)c2)cc1 | inactive: 0.0222%
6 | COc1ccc(C)cc1-n1nnnc1SCc1cc(=O)n2cc(C)ccc2n1 | inactive: 0.702%
7 | CCOc1ccccc1NC(=O)C(NCCc1ccc(OC)cc1)c1ccccc1 (centres undefined) | inactive: 5.41%
8 | Cc1cccc(NC(=O)c2ccc(Cl)c(S(=O)(=O)N3CCc4ccccc43)c2)n1 | inactive: -4.04%
9 | N#Cc1ccc(NC(=O)Nc2ccc(Cl)cc2)cc1 | inactive: -9.56%
10 | CN(C)c1ccc(NC(=S)c2ccc3ccccc3n2)cc1 | inactive: 1.66%
11 | CCCCOCCCNc1ncnc2c1[nH]c1ccccc12 | inactive: -8.16%
12 | Clc1cc(Cl)c(OCc2nc(-c3ccccn3)no2)cc1Cl | inactive: -4.07%
13 | O=C(NC(Nc1nc2ccc([N+](=O)[O-])cc2s1)(C(F)(F)F)C(F)(F)F)c1cccnc1 | inactive: -6.02%
14 | C=CCNC(=O)c1ccc(NC(=O)C2=CSCCO2)cc1 | inactive: 0.848%
15 | COC(=O)c1ccc(COc2cc(O)c3c(c2)OC(C)(C)CC3=O)cc1 | inactive: -0.0715%
16 | O=C(CSc1nnc(NC(=O)c2cccc(Br)c2)s1)NCC1CCCO1 (centres undefined) | inactive: -5.71%
17 | O=C(OCCc1cc2ccccc2c(=O)o1)c1ccccc1C(F)(F)F | inactive: 1.43%
18 | O=C(Nc1nc(-c2cccs2)cs1)c1cccc(S(=O)(=O)N2CCCCCC2)c1 | inactive: -6.41%
19 | CN(C)c1nc(=S)nc(NCc2ccccc2)[nH]1 | inactive: 5.9%
20 | COCC(=O)N1CCC(n2nccc2NC(=O)c2ccccc2OC)CC1 | inactive: 2.84%
21 | Nc1ncc(Br)cc1S(=O)(=O)Nc1cc(C(F)(F)F)cc(C(F)(F)F)c1 | inactive: -4.31%
22 | CCOc1ccc(N(CC(=O)NCc2ccc(F)cc2)C(=O)CCC(=O)Nc2nccs2)cc1 | inactive: 2.09%
23 | COc1ccc(CCNc2ncnc3sc(C)cc23)cc1OC | inactive: -0.71%
24 | Cc1[nH]n(-c2ccccc2)c(=O)c1N=Nc1c(O)cc(S(=O)(=O)N(C)C)c2ccccc12 | inactive: -9.58%
25 | c1ccc2c(Cn3nnc4ccccc43)cccc2c1 | inactive: 3.24%
26 | COC(=O)c1ccc(C2N=C(c3cccs3)CC(c3ccccc3O)N2)cc1 (centres undefined) | inactive: -5.29%

Among those listed so far, these contain fluorine.
Row | Structure (SMILES) | activity change, negative = inhibition
13 | O=C(NC(Nc1nc2ccc([N+](=O)[O-])cc2s1)(C(F)(F)F)C(F)(F)F)c1cccnc1 | inactive: -6.02%
17 | O=C(OCCc1cc2ccccc2c(=O)o1)c1ccccc1C(F)(F)F | inactive: 1.43%
21 | Nc1ncc(Br)cc1S(=O)(=O)Nc1cc(C(F)(F)F)cc(C(F)(F)F)c1 | inactive: -4.31%
22 | CCOc1ccc(N(CC(=O)NCc2ccc(F)cc2)C(=O)CCC(=O)Nc2nccs2)cc1 | inactive: 2.09%

Following part:

Row | Structure (SMILES) | activity change, negative = inhibition
27 | CCn1c(=O)c([N+](=O)[O-])c(Cl)c2ccccc21 | inactive: -8.99%
28 | CCCC(=NC(C)CC)C1=C(O)CC(c2ccccc2)CC1=O (centres undefined) | inactive: -2.01%
29 | CC(=O)Nc1nc(C)c(Oc2ccc(C)cc2)c(=O)[nH]1 | inactive: -1.89%
30 | CC(=O)Oc1c(I)cc(I)cc1C(=O)Nc1ccc(Cl)cc1 | inactive: -2.66%
31 | O=C(N1CCN=C1SCc1cccnc1)C12CC3CC(CC(C3)C1)C2 | inactive: 3.8%
32 | C=C(C)C(=O)OCC(O)COc1ccc(C(C)(C)c2ccc(OCC(O)COC(=O)C(=C)C)cc2)cc1 (centres undefined) | inactive: 2.1%
33 | CC1CCc2nc(NC(=O)CSc3nc4ccccc4o3)sc2C1 (centres undefined) | inactive: -5.03%
34 | COc1ccc(Br)cc1/C=N/NC(=O)CN1CCCCC1 | inactive: 1.49%
35 | O=C1/C(=C\c2cc([N+](=O)[O-])ccc2O)SC(=S)N1Cc1ccc(Cl)cc1 | inactive: -0.0111%
36 | COC(=O)c1ccc(O)c(Sc2cc(C(=O)OC)ccc2O)c1 | inactive: 5.3%
37 | Cc1occc1-c1nnc(SCC(=O)Nc2nc(C(C)(C)C)cs2)o1 | inactive: 0.133%
38 | CCCCCCSc1nsc(NC(C)=O)n1 | inactive: 0.688%
39 | CCn1nnc2cc(C(=O)NCC(c3ccccc3OC)N(C)C)ccc21 (centres undefined) | inactive: 0.997%
40 | COc1ccc(NC(=O)c2ccc3ccccc3n2)cc1S(=O)(=O)Nc1ccccc1Cl | inactive: -0.701%
41 | COC(=O)CN1C(=O)COc2ccc(S(=O)(=O)N3CCCC3)cc21 | inactive: 6.27%
42 | O=C(Nc1ncc(S(=O)(=O)c2ccc([N+](=O)[O-])cc2)s1)c1ccc2ccccc2c1 | inactive: -5.81%
43 | Cc1cc(C)c(S(=O)(=O)c2c(C)cccc2C)c(Cl)n1 | inactive: -1.36%
44 | COc1ccc(-n2nnnc2SCC(=O)NC2CCCC2)cc1OC | inactive: 5.81%
45 | Cc1cc2cc(CCNC(=O)c3ccc(S(=O)(=O)N4CCCC4)cc3)c(=O)[nH]c2cc1C | inactive: -7.69%
46 | O=C(Nc1ncc(S(=O)(=O)c2ccc([N+](=O)[O-])cc2)s1)c1ccccc1F | inactive: -5.75%
47 | CN(Cc1ccco1)S(=O)(=O)c1nnc(NC(=O)c2cccc(Cl)c2)s1 | inactive: -2.31%
48 | CC(CNC(=O)c1cc(COc2ccc3ncccc3c2)on1)c1ccccc1 (centres undefined) | inactive: -3.81%
49 | COc1cnc(SCc2ccc(Cl)cc2Cl)nc1Cl | inactive: 2.29%
50 | CN(c1cccc(NC(=O)c2ccc(Cl)c(S(=O)(=O)Nc3ccccc3)c2)c1)S(C)(=O)=O | inactive: -6.09%
51 | O=c1cc(-c2ccccc2)nc2c(-c3ccccc3)c(C(F)(F)F)[nH]n12 | inactive: -4.22%
52 | Cc1ccc(C)c(N2CCN(C(=O)CCS(=O)(=O)c3ccc4c(c3)CCN4C(=O)C3CC3)CC2)c1 | inactive: -6.03%

Row | Structure (SMILES) | activity change, negative = inhibition
53 | COc1ccccc1N1CCN(c2nc(C)nc3c2oc2ccccc23)CC1 | inactive: -2.81%
54 | O=S(=O)(Nc1ccc(-c2ccc(N3CCOCC3)nn2)cc1)c1cc(Cl)ccc1Cl | inactive: -7.37%
55 | CCc1ccc(-c2cc(C)no2)cc1S(=O)(=O)N1CCN(c2ccccn2)CC1 | inactive: -3.09%
56 | CN(C)c1ccc(NC(=O)Oc2ccccc2)cc1 | inactive: 2.87%
57 | Cc1cc(-n2c(C)cc(C(=O)CSc3[nH]c(=O)cc(C(F)(F)F)c3C#N)c2C)no1 | inactive: 4.4%
58 | O=C(Nc1ccc(Oc2ccc(Cl)cc2)c(Cl)c1)c1cc(I)cc(I)c1O | inactive: 0.502%
59 | O=[N+]([O-])c1cc(Br)c(O)c(/C=N/Nc2nc3ccccc3s2)c1 | inactive: -6.75%
60 | CN1/C(=C/C(=O)c2nc(S(C)(=O)=O)ncc2Cl)C(C)(C)c2ccccc21 | inactive: -7.95%
61 | COc1cc(C(=O)NCCNC(=O)c2cnccn2)cc(OC)c1OC | inactive: 4.49%
62 | Cc1[nH]n(C)c(=O)c1C(=O)c1c(-c2c(Cl)cccc2Cl)noc1C | inactive: -0.751%
63 | COc1ccc(NS(=O)(=O)c2cccc(NC(=O)C3=NN(c4ccccc4)C(=O)CC3)c2)cc1 | inactive: -3.01%
64 | Cc1ccc(NC(=O)Cn2ncc3c([nH]c4ccccc43)c2=O)cc1Cl | inactive: 0.467%
65 | COc1ccc2[nH]c3c(NCCC4=CCCCC4)ncnc3c2c1 | inactive: -5.2%
66 | COC(=O)Cn1c(=NC(=O)CSC(C)=O)sc2ccccc21 | inactive: 0.922%
67 | CC(C)C[C@H](N)c1nnc(S(=O)(=O)Cc2ccc(F)cc2)o1 | inactive: -9.78%
68 | Cc1ccccc1C(=O)N1CCN(c2ccc(NC(=O)CSc3ccc(Cl)cc3)cc2)CC1 | inactive: -2.79%
69 | O=C(CCC(=O)Nc1ccccc1)N/N=C/c1ccncc1 | inactive: 2.38%
70 | Cc1cccc(OCCCCc2c(C)n[nH]c2C)c1C | inactive: -0.678%
71 | COc1ccccc1N1C(=O)c2cccc3c(Cl)ccc(c23)C1=O | inactive: 1.83%
72 | O=C(c1cccs1)c1ccc(-c2cccs2)s1 | inactive: -0.0059%
73 | CC(C)S(=O)(=O)C1=NSC2=NC(=O)/C(=C\c3ccc(-c4ccccc4)o3)C(=N)N21 | inactive: -7.22%
74 | O=C(Nc1nnc(SCc2ccc(Cl)cc2Cl)s1)C1COc2ccccc2O1 (centres undefined) | inactive: 3.2%
75 | O=C(CSc1ccc2nnc(CCNC(=O)c3ccccc3)n2n1)NCc1ccc(F)cc1 | inactive: 5.77%
76 | C1=C(CCNc2ncnc3c2[nH]c2ccccc23)CCCC1 | inactive: -5.54%
77 | COC(=O)c1ccc(NC(=O)c2nc(S(=O)(=O)Cc3cccc(C)c3)ncc2Cl)cc1 | inactive: 5.51%
78 | O=C(CSc1n[nH]c(=O)n1C1CC1)c1ccc2c(c1)OCCO2 | inactive: -0.511%

Row | Structure (SMILES) | activity change, negative = inhibition
79 | CN(Cc1ccco1)S(=O)(=O)c1csc(C(N)=O)c1 | inactive: 3.14%
80 | COc1cccc(C(=O)Nc2ccc(NC(=O)C3CCCCC3)nc2)c1 | inactive: -5.39%
81 | Cc1cccc(OCC(=O)Nc2nc3ccc([N+](=O)[O-])cc3s2)c1C | inactive: 3.08%
82 | CCSc1ccc(C(=O)Nc2ccc(Br)cn2)cc1[N+](=O)[O-] | inactive: -5.48%
83 | Cc1ccc(C2=NS(=O)(=O)N(C)C(C(=O)NCc3ccc(F)cc3)=C2)cc1 | inactive: 2.08%
84 | Cc1ccc(NC(=O)Nc2ccc3c(c2)OCO3)c(OC(F)F)c1 | inactive: 3.98%
85 | CC1CCN(S(=O)(=O)c2nnc(NC(=O)c3cccc([N+](=O)[O-])c3)s2)CC1 | inactive: -6.2%
86 | CCOc1ccc2nc(NC(=O)c3ccc(OCC4CCCO4)cc3)sc2c1 (centres undefined) | inactive: -9.31%
87 | COc1ccc(N2CCN(c3ncnc4sc(C(=O)NCC5CCCO5)c(C)c34)CC2)cc1 (centres undefined) | inactive: -0.502%
88 | CCOc1ccc(C2NC(=O)c3ccccc3O2)cc1OC (centres undefined) | inactive: 4.73%
89 | COc1ccc(NS(=O)(=O)c2cn(C)cn2)cc1Cl | inactive: 1.63%
90 | COc1ccc(-c2cn(CCCOCc3ccccc3)nn2)cc1 | inactive: 0.0377%
91 | CCC(C)NC(=O)CN1C(=O)CSc2ccc(S(=O)(=O)N3CCCC3)cc21 (centres undefined) | inactive: 1.36%
92 | COc1ccc(-c2sc3ccc(N4CCOCC4)cc3c2C#CCO)cc1 | inactive: -3.71%
93 | CCOc1ccc2nc(NC(=O)CS(=O)(=O)c3ccccc3)sc2c1 | inactive: 2.78%
94 | COc1ccc(S(=O)(=O)Nc2ccccc2C(=O)Nc2nc(-c3ccc(F)cc3)cs2)cc1OC | inactive: -6.89%
95 | COc1ccc(NC(=O)/C(Cl)=C(/Cl)S(=O)(=O)Cc2ccccc2)cn1 | inactive: -9.15%
96 | COC(=O)c1c(NC(NC(C)=O)C(Cl)(Cl)Cl)sc2c1CCCC2 (centres undefined) | inactive: -3.47%
97 | O=c1[nH]cccc1-c1nc2ccccc2n1Cc1ccc(F)cc1 | inactive: 0.801%
98 | O=C(NC1CCCCC1)C(c1cccs1)N(Cc1cccs1)C(=O)c1cccs1 (centres undefined) | inactive: -0.269%
99 | CCCN1CCN(CCCNC(=O)Cn2nc(C)n3c(cc4cc(OC)ccc43)c2=O)CC1 | inactive: -0.389%
100 | COc1ccc(OC)c(NC(=O)c2cc(S(=O)(=O)NCc3ccco3)ccc2F)c1 | inactive: 1.21%
101 | Clc1ccc(CCNc2ncnc3nc[nH]c23)cc1 | inactive: 1.2%
102 | COc1cc([N+](=O)[O-])cc(/C=C2/SC(=S)N(Cc3ccccc3)C2=O)c1O | inactive: 0.0238%
103 | CC1CN(C(=O)CCn2c(=O)oc3ccccc32)CC(C)O1 (centres undefined) | inactive: 1.44%
104 | Cc1ccc(CCNC(=O)CN2C(=O)COc3ccc(S(=O)(=O)N4CCC(C)CC4)cc32)cc1 | inactive: 4.23%

— PubChem BioAssay AID602441 (National Center for Advancing Translational Sciences (NCATS), 2012)
